Results taken from doi:10.1101/2024.11.02.621644.
No constants are given. Whether binding was seen depends on the method and setting. Binding seen in cells or lysates may run through a third protein. These calls come from enrichment with a bait or labelling near it, and not all partners need be listed. Where a sequence is shown, tags or fusion partners need not be part of it.

The chains behind the UniProt entries cited, without tags or fusion partners.
UniProt O00571: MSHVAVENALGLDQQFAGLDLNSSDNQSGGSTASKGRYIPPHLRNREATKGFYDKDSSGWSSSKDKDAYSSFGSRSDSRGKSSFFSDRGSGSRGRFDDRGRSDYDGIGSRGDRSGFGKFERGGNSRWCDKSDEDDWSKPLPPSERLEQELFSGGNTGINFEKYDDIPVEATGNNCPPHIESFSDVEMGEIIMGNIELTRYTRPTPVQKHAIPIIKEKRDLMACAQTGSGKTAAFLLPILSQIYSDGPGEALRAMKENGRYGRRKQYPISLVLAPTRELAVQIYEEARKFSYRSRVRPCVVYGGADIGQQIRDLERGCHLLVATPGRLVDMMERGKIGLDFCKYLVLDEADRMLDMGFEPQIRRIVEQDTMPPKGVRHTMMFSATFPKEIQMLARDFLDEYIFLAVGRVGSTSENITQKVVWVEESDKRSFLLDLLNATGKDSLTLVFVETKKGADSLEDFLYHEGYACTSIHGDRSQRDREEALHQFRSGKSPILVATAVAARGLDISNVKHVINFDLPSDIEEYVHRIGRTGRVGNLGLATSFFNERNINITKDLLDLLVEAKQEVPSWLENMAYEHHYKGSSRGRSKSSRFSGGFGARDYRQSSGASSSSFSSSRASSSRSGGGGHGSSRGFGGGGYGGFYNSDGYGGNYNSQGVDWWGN
UniProt Q9NYF8: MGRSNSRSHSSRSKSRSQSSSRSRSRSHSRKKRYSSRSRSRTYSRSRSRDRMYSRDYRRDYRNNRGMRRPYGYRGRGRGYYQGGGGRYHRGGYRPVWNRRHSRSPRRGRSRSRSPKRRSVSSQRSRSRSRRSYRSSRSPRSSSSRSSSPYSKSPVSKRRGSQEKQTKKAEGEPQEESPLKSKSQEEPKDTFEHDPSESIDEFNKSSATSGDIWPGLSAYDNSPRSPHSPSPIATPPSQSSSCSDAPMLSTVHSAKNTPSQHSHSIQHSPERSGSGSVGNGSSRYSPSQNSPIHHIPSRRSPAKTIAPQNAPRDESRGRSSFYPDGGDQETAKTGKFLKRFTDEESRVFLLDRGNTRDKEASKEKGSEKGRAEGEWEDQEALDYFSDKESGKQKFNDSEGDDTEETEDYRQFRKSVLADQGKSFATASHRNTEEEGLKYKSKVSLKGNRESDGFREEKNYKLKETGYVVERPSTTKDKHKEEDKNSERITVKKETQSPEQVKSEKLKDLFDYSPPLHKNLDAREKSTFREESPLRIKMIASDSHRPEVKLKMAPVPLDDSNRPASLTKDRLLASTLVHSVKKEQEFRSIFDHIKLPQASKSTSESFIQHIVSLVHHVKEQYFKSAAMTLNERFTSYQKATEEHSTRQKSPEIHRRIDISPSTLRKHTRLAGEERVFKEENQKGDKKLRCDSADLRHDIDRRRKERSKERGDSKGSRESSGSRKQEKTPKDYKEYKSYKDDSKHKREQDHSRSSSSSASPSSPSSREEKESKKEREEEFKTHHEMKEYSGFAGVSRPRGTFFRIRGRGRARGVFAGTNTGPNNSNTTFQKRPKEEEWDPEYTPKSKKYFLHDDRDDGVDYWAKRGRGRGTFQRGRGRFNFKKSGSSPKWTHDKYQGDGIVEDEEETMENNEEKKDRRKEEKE
UniProt Q86WJ1: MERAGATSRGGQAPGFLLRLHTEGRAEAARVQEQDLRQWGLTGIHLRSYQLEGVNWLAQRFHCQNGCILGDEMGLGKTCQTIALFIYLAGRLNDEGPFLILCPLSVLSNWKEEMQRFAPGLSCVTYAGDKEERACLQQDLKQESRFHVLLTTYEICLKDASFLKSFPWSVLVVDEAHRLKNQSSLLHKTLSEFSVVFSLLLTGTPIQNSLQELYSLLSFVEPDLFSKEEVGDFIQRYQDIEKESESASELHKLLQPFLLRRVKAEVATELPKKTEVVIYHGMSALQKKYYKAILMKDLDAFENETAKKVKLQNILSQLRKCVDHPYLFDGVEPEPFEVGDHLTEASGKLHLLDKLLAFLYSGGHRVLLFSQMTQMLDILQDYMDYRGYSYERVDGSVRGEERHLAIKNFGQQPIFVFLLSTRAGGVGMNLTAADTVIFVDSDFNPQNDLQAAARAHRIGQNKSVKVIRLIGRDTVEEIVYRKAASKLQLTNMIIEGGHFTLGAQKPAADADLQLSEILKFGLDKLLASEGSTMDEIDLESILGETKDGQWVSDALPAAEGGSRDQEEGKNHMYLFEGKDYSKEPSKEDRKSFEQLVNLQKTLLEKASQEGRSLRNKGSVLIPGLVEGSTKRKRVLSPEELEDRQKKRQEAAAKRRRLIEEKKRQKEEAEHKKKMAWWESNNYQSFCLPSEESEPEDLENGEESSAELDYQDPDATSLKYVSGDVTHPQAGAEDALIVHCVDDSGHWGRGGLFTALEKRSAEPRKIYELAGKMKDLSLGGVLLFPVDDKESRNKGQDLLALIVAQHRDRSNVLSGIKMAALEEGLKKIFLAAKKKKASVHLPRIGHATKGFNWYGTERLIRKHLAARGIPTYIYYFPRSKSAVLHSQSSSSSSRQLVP
UniProt Q14839: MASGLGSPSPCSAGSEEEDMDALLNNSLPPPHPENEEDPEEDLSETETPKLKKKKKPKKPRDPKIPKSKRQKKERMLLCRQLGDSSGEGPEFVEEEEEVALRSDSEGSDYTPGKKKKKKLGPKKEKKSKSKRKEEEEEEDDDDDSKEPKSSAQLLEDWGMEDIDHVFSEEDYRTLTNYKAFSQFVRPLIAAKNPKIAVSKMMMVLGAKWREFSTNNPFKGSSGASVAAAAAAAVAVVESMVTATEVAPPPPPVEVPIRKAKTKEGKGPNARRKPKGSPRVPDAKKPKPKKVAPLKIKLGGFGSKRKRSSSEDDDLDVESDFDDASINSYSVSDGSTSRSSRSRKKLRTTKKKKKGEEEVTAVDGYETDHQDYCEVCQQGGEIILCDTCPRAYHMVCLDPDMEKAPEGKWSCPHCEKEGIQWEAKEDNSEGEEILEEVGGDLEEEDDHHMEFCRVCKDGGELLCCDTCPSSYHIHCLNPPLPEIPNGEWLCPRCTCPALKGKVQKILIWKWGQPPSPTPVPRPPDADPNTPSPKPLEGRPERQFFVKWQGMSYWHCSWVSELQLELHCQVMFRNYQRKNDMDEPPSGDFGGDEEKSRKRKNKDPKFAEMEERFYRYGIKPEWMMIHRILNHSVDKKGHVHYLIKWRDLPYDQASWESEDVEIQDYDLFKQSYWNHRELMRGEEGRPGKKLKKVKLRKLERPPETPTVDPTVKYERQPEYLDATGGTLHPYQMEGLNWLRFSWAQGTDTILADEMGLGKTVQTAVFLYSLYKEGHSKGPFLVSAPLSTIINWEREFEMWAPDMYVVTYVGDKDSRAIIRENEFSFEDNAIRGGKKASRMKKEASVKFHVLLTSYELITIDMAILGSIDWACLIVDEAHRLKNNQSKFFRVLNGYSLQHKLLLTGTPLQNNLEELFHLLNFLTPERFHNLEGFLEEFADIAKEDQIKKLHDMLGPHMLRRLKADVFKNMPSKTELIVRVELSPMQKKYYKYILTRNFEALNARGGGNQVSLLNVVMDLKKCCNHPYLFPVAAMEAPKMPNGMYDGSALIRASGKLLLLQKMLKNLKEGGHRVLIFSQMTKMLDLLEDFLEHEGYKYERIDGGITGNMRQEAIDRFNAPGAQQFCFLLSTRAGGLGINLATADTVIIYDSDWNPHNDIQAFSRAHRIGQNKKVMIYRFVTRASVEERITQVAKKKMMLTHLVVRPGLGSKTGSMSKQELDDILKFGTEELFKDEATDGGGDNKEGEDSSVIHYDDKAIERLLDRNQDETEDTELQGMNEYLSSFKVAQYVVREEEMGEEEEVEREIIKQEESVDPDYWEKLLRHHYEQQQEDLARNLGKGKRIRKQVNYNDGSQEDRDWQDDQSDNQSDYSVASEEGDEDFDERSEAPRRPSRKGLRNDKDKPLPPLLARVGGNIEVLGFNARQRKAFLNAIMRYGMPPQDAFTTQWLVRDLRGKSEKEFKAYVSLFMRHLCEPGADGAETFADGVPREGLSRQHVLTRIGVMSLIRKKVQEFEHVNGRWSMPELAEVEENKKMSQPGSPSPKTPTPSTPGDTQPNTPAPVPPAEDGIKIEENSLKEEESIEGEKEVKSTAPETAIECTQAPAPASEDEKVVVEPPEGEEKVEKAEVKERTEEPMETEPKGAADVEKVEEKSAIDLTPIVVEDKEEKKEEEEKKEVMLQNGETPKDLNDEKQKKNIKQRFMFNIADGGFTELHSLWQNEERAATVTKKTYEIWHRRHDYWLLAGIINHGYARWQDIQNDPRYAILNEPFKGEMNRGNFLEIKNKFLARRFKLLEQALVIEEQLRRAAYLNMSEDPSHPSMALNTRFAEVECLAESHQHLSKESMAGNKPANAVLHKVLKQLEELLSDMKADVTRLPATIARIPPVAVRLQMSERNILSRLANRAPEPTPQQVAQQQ
UniProt P09874: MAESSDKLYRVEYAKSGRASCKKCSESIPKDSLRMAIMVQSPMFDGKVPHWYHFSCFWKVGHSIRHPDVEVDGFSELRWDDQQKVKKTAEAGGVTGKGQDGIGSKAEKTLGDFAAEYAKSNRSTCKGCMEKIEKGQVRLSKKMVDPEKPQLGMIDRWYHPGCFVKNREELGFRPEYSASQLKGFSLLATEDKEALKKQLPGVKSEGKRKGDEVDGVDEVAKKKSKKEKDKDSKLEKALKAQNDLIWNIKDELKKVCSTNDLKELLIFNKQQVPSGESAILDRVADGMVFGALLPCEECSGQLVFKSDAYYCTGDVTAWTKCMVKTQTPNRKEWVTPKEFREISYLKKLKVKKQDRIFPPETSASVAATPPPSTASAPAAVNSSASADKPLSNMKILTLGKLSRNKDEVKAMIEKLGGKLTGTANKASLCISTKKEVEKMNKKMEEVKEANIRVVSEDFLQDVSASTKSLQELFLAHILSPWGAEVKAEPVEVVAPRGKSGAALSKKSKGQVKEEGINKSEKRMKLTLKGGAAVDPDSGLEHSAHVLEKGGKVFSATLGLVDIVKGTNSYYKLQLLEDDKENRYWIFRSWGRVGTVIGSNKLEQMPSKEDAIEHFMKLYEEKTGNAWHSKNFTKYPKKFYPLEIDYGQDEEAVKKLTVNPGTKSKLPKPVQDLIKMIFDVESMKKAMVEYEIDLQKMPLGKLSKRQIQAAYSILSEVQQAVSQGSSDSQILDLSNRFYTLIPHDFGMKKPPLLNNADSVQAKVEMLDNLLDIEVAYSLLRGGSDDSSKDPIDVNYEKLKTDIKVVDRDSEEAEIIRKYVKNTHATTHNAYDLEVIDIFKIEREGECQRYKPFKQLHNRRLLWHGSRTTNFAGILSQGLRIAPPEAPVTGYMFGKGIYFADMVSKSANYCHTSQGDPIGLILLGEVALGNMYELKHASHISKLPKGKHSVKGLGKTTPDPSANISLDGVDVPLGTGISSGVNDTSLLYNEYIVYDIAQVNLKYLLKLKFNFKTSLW
UniProt P12004: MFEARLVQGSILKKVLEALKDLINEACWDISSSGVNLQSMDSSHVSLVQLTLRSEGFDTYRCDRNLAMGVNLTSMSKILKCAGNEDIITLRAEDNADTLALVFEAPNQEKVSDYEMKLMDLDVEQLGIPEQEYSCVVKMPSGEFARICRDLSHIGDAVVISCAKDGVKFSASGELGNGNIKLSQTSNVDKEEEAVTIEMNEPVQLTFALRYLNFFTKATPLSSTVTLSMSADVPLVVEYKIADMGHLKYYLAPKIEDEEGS

Target: T1, FLAG-tagged GLIS2 (GLIS family zinc finger protein 2) (mouse) (UniProt Q8VDL9)
T1 sequence: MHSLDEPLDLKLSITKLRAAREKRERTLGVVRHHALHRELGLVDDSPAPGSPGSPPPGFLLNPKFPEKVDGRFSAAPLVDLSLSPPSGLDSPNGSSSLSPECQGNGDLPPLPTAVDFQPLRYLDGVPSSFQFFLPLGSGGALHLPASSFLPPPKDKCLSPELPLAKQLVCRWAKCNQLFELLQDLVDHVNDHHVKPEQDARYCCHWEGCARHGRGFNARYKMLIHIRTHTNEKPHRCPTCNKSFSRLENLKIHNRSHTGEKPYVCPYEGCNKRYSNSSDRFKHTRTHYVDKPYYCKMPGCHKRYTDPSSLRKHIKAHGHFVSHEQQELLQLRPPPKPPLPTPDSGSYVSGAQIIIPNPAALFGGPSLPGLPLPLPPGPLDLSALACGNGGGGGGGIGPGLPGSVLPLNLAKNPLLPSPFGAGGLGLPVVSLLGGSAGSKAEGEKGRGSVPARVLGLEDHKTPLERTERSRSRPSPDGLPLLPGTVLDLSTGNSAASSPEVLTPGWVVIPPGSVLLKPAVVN
Test: affinity purification with mass spectrometry

Question: With “ATP-dependent RNA helicase DDX3X (from UniProt O00571 1-662)” as the substance, how does the binding read?
Answer: binds

Question: With “Bcl-2-associated transcription factor 1 (from UniProt Q9NYF8 1-920)” as the substance, how does the binding read?
Answer: binds

Question: Which binding does the source give for “Chromodomain-helicase-DNA-binding protein 1-like (from UniProt Q86WJ1 1-897)” here?
Answer: binds

Question: With “Chromodomain-helicase-DNA-binding protein 4 (from UniProt Q14839 1-1912)” as the substance, how does the binding read?
Answer: binds

Question: Which binding does the source give for “Poly[ADP-ribose]polymerase 1 (from UniProt P09874 1-1014)” here?
Answer: binds

Question: “Proliferating cell nuclear antigen (from UniProt P12004 1-261)” was tested. Which binding did it give?
Answer: binds
